The inconclusive results got no clear call from the source; some entries with a clear call stand among them for comparison. Calls of active or inactive are those of the source. The rule behind the calls is not given here.
Assay: dose response, V. cholerae BH1651, dry powder (AID 651847)
Conditions: V. cholerae BH1651 luxOD47E, luciferase light induction, 6 h; at 80 µM (top of the series)

Compound | activation (light induction)
CCn1nnnc1CCc1ccc(N2CCCC2)cc1 | inactive: -12.5%
O=C(Cc1ccccc1Cl)NC1CCCC1 | inconclusive: 12.5%
Fc1ccc(Cn2nnnc2NCc2ccc(N3CCCC3)cc2)cc1 | inconclusive: 50%
CCCCn1nnnc1NCc1ccc(N2CCCC2)cc1 | inactive: -25%
O=C(Cc1ccccc1OC(F)(F)F)NC1CCCC1 | inconclusive: 37.5%
O=C(Cc1ccc(-c2ccccc2)cc1)NC1CC1 | active: 25%

From PubChem BioAssay AID651847 (Broad Institute, 2012)
